Drawing on PMC9455612, this text covers binding for one substance.

Results are given in words; binding and its absence hold for the method and conditions named. Binding seen in cells or lysates may run through a third protein. Where a sequence is shown, tags or fusion partners need not be part of it.

This test addresses T1, NTCP V5His (UniProt Q14973).
T1 sequence: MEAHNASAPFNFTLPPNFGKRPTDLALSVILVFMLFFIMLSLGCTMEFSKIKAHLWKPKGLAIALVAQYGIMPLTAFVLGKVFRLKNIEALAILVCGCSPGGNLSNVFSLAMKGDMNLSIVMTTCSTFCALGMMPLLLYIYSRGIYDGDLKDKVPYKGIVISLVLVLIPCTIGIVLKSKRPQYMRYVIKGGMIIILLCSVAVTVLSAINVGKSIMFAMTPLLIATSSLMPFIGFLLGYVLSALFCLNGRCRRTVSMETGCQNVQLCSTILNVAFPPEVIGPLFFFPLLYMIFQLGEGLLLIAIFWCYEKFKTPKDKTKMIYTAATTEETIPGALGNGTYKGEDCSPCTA
The test can be described thus: pull-down; NTCP V5-His from transfected 293T lysate held on Ni-NTA agarose, overnight at 4 °C; 20 mM NaPO4 pH 8.0, 0.3 M NaCl, 10% glycerol, 0.1% Triton X-100; eluted with 0.5 M imidazole; input, unbound and bound fractions blotted with anti-V5 and anti-ATP5B.

For “ATP5B (cellular, 293T) (from UniProt P06576 48-529)”, the binding entry is “no binding”.
